The source of these data is publication doi:10.1101/2025.05.26.656073 (bioRxiv, 2025).

The target in test [1] is OCP(R27L) mutant, dark-adapted state (Synechocystis sp. PCC 6803) (UniProt P74102). As to the kind of experiment: SAXS.
Test [2] shares this target. The experiment in a line: SEC. On the technique in general: Size exclusion chromatography separates by hydrodynamic size, large species first.
In test [3] the target is T1, Orange Carotenoid Protein, light-adapted state (OCP^R), wild type, canthaxanthin-binding holo form (Synechocystis sp. PCC 6803), P74102.
T1 chain: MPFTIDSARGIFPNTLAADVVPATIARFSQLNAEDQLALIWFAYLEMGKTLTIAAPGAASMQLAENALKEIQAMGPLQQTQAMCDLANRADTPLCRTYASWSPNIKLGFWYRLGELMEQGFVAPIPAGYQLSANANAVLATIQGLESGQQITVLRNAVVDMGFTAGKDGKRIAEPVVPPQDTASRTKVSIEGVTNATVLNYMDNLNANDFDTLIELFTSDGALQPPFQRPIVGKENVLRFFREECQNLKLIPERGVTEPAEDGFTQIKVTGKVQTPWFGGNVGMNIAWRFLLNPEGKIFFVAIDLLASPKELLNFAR
As to the kind of experiment: SEC. To be noted: remark: other sources report otherwise.

Test [4] deals with T1, Orange Carotenoid Protein, …. As to the kind of experiment: transient grating spectroscopy. To be noted: remark: other sources report otherwise.
Test [5] shares this target. The experiment in a line: transient grating spectroscopy. To be noted: remark: other sources report otherwise.

These are yes or no findings as the source states them, for the method shown. Some binding calls cover weakened binding; strength is not graded here.

As for “OCP(R27L) mutant, dark-adapted state (from UniProt P74102 1-316)”, the binding entry is “no binding (tested: 100 µM)” in test [1] and “no binding (tested: 200 µM)” in test [2].

B1: Orange Carotenoid Protein, light-adapted state (OCP^R), wild type, canthaxanthin-binding holo form, P74102 1-317 (natural protein)
chain: T1 chain
Consider B1, for which the binding entry in test [3], in test [4] and in test [5] was “binds” each time.

B2: apo-OCP (carotenoid-free Orange Carotenoid Protein), P74102 1-317 (natural protein)
chain: T1 chain
As for B2, the binding result in test [5] was “binds”.
